Assay results as given in patent US4239744A, “Radioreceptor assay for benzodiazepines in plasma and other biological specimens” (United States of America, priority 1978, dated 1980).
Several values for one entry are separate records, joined by “and”; a condition that tells them apart may be missing. Identical values can stand only once.

Assay: Plasma levels in baboons given diazepam, determined by gas-liquid chromatography (GLC/EC)
Details: plasma samples No. 1-11 from baboons given 2-4 mg/kg diazepam; N-demethyldiazepam converted by standard curve and added to diazepam

With `CN1C(=O)CN=C(c2ccccc2)c2cc(Cl)ccc21` [Diazepam, diazepam] the “GLC/EC Assay "Diazepam Equivalents, Calculated"” value was 624 ng/mL and 800 ng/mL.
